19 substances from patent publication US8153759B2 (National University Corporation Gunma University, priority 2006, dated 2012) can be followed below.

This data set in a line: general procedure: solution-phase peptide synthesis; EDC.HCl/HOBt (also DCC/HOBt).
Setting [1] is: coupling step, TFA salt or hydrochloride salt after Boc removal.
Setting [2] is: late stage modification step, TFA salt or hydrochloride salt after Boc removal.
Setting [3] is: late stage modification step, HCl salt.

For Boc-(Ala-Ile-Gly-Lac-Pro)2-OBzl, the step yield under setting [1] was 77.20%. Consider Boc-(Ala-Ile-Gly-Lac-Pro)3-OBzl, for which the step yield under setting [1] was found to be 62.8%. In the case of Boc-(Ala-Ile-Gly-Lac-Pro)4-OBzl, the step yield under setting [1] is given as 57.5%. Same read-out and setting: next, Boc-Ala-Ile-Gly-Lac-Pro-OBzl: 58.1%. Consider Boc-Ala-Ile-Gly-Lac-Pro-OH, for which, under setting [2], the step yield is listed as 77.2%.

Take Boc-Ala-Ile-Gly-Lac-Pro-OSu: the step yield under setting [2] stood at 96.5%. As for Boc-Gly-Ile-Gly-Lac-Pro-OBzl, the step yield under setting [1] is 83.9%. Consider Boc-Gly-Ile-Gly-Lac-Pro-OH, for which, under setting [2], the step yield is 87.0%. For Boc-Gly-Ile-Gly-Lac-Pro-OSu, the step yield under setting [2] is recorded as −100%. With Boc-Gly-Val-Gly-Lac-Pro-OBzl, under setting [1], the step yield came to 86%. For Boc-Gly-Val-Gly-Lac-Pro-OH, the step yield under setting [2] came out at 73%.

Turning to Boc-Gly-Val-Gly-Lac-Pro-OSu, the step yield under setting [2] stood at 85%. In the case of Boc-Ile-Gly-Lac-Pro-OBzl, under setting [1], the step yield result is listed as “˜100%”. The same measure, in the same setting: then Boc-Val-Gly-Lac-Pro-OBzl, with 99%. As for HCl.H-(Ala-Ile-Gly-Lac-Pro)2-OBzl, the step yield under setting [3] was determined as 91.1%. As for HCl.H-(Ala-Ile-Gly-Lac-Pro)3-OBzl, under setting [3], the step yield entry was “˜100%”. On the same count and under the same terms, next, HCl.H-Ala-Ile-Gly-Lac-Pro-OSu: “˜100%”; HCl.H-Gly-Ile-Gly-Lac-Pro-OSu: 94.5%; HCl.H-Val-Gly-Lac-Pro-OBzl: 92%.
